Data: the supplement of paper PMC6331611
± gives the standard deviation of the averaged measurements. The full ranking holds about 1,600 compounds; the median of “normalized intracellular growth (luminescence, IQM-normalized) in RAW264.7 macrophages” is about 1, and the lowest 2% start at about 0.43. The list shows a part of the results.

Test system: Salmonella enterica serovar Typhimurium SL1344
Experiment: normalized intracellular growth (luminescence, IQM-normalized) in RAW264.7 macrophages (fraction of plate interquartile mean); higher = more bacterial growth (less inhibition)
Conditions: 10 µM

Compound	normalized intracellular growth (time point: T3 (3 h))	normalized intracellular growth (time point: Tfinal (~6 h))
C[C@H]1C[C@@H]2[C@H]([C@@H](O)C[C@@]3(C)[C@H]2CC[C@]3(O)C(=O)CO)[C@@]2(C)C=CC(=O)C=C12	1.07 ± 0.02	0.417 ± 0.054
CC(C)NCC(O)c1ccc2ccccc2c1 (configuration not stated)	0.937 ± 0.052	1.07 ± 0.029
CC(=O)O[C@]1(C(C)=O)CC[C@H]2[C@@H]3C[C@H](C)C4=CC(=O)CC[C@]4(C)[C@H]3CC[C@@]21C	1 ± 0.042	0.941 ± 0.11
O=C(O)c1cc(-c2ccccc2)nc2ccccc12	0.954 ± 0.013	0.688 ± 0.24
CN(C)c1nc(N(C)C)nc(N(C)C)n1	0.966 ± 0.055	0.963 ± 0.051
CN(C)[C@@H]1C(O)=C(C(=O)NCN2CCCC2)C(=O)[C@@]2(O)C(O)=C3C(=O)c4c(O)cccc4[C@@](C)(O)[C@H]3C[C@@H]12	0.973 ± 0.013	0.683 ± 0.41
Cc1c(N(C)CS(=O)(=O)O)c(=O)n(-c2ccccc2)n1C	0.987 ± 0.015	1.15 ± 0.081
CC(NCCC(c1ccccc1)c1ccccc1)c1ccccc1 (configuration not stated)	0.867 ± 0.046	0.974 ± 0.23
CCN(CC)CCc1nc(-c2ccccc2)no1	1 ± 0.024	0.786 ± 0.12
CCc1cn([C@H]2C[C@H](O)[C@@H](CO)O2)c(=O)[nH]c1=O	1.09 ± 0.034	0.868 ± 0.01
O=S(=O)(O)NC1CCCCC1	0.688 ± 0.097	0.748 ± 0.044
O=c1oc2ccccc2c(O)c1Cc1c(O)c2ccccc2oc1=O	0.9837 ± 0.0082	0.993 ± 0.02
CN1CCN(CCCN2c3ccccc3Sc3ccc(Cl)cc32)CC1	0.985 ± 0.021	0.921 ± 0.043
C[C@H](CCC(=O)O)[C@H]1CC[C@H]2[C@@H]3[C@H](O)C[C@@H]4C[C@H](O)CC[C@]4(C)[C@H]3CC[C@]12C	1.12 ± 0.032	1.07 ± 0.04
NCC(O)CC(=O)O (configuration not stated)	0.966 ± 0.067	1.03 ± 0.12
CC(=O)OCC(CCn1cnc2cnc(N)nc21)COC(C)=O	1 ± 0.027	1.08 ± 0.14
C1CNCCN1	0.991 ± 0.091	0.655 ± 0.077
COc1c2occc2c(OC)c2c(=O)cc(C)oc12	1.066 ± 0.0025	1.04 ± 0.12
CC[C@H](C)C(=O)O[C@H]1CCC=C2C=C[C@H](C)[C@H](CC[C@@H]3C[C@@H](O)CC(=O)O3)[C@H]21	0.976 ± 0.08	0.837 ± 0.19
Nc1cc(C(Cl)=C(Cl)Cl)c(S(N)(=O)=O)cc1S(N)(=O)=O	1.03 ± 0.061	1.12 ± 0.16
Cc1nnc(NS(=O)(=O)c2ccc(N)cc2)s1	1.02 ± 0.04	1.01 ± 0.021
O=C1C2CC3CC1CC(O)(C3)C2	1 ± 0.017	1.06 ± 0.065
C1CCN2C[C@@H]3C[C@@H](CN4CCCC[C@@H]34)[C@H]2C1	0.991 ± 0.035	1.08 ± 0.04
CC1CC(OC(=O)C(O)c2ccccc2)CC(C)(C)N1C (configuration not stated)	0.882 ± 0.088	0.983 ± 0.09
O=C(O)CCCc1ccccc1	0.951 ± 0.023	1.11 ± 0.078
Cc1cnc(NC(=O)C2=C(O)c3ccccc3S(=O)(=O)N2C)s1	1.03 ± 0.041	1.06 ± 0.12

2 of the compounds above, comma-delimited:
Compound,normalized intracellular growth (time point: T3 (3 h)),normalized intracellular growth (time point: Tfinal (~6 h))
Cc1c(N(C)CS(=O)(=O)O)c(=O)n(-c2ccccc2)n1C,0.987 ± 0.015,1.15 ± 0.081
CC(NCCC(c1ccccc1)c1ccccc1)c1ccccc1 (configuration not stated),0.867 ± 0.046,0.974 ± 0.23
